From PubChem BioAssay AID214 (DTP/NCI, 2004)
The list does not hold the whole screen: it is rich in T/C values a quarter to a half above the control, in often repeated tests (any T/C) and in doses without a T/C. Further doses and runs are listed elsewhere. T/C gives the treated animals as a percentage of the vehicle group. Schedule codes are those of the source, read here as Q, the interval in days (D) or hours (H), X, the number of doses. Some T/C values carry the count of animals alive at the toxicity check (mostly the fifth day); where none is given, no animal had died by that day. Some entries were tested several times; their values stand side by side, smallest first. Additions like (4×) count equal records among those shown. Some entries give survivors of the animals treated and no T/C: the source holds a T/C of zero for them, seemingly a mark for toxic or unscored doses. Survivors were counted at the toxicity check, usually on the fifth day, unless a day is given; later deaths do not show.

Tested on: B6C3F1 mice, colon carcinoma 38 s.c., T/C
Test: NCI In Vivo Anticancer Drug Screen. Data for tumor model Colon Carcinoma 38 (subcutaneous) in B6C3F1 mice
Settings: T/C endpoint: median tumor weight (est.), higher T/C = larger tumour; for T/C: evaluated on day 20
Procedure: The antitumor activity of compounds was measured in mice bearing transplantable tumors. Survival or tumor size were measured and the results are expressed as the measurement made in the treated group (T) divided by the measurement made in the vehicle treated control group (C). The tumor model used in this assay is Colon Carcinoma 38 (subcutaneous) in B6C3F1 mice

[1] = dose: 100.0 mg/kg/injection, schedule: Q07DX002 (ip), vehicle: saline
[2] = dose: 200.0 mg/kg/injection, schedule: Q07DX002 (ip), vehicle: saline
[3] = dose: 400.0 mg/kg/injection, schedule: Q07DX002 (ip), vehicle: saline
[4] = dose: 100.0 mg/kg/injection, schedule: Q07DX002 (ip), vehicle: saline with Tween-80
[5] = dose: 400.0 mg/kg/injection, schedule: Q07DX002 (ip), vehicle: saline with Tween-80
[6] = dose: 20.0 mg/kg/injection, schedule: Q07DX002 (ip), vehicle: Klucel (hydroxypropylcellulose) (HPC)
[7] = dose: 40.0 mg/kg/injection, schedule: Q07DX002 (ip), vehicle: Klucel (hydroxypropylcellulose) (HPC)
[8] = dose: 80.0 mg/kg/injection, schedule: Q07DX002 (ip), vehicle: Klucel (hydroxypropylcellulose) (HPC)
[9] = dose: 1600.0 mg/kg/injection, schedule: Q07DX002 (ip), vehicle: saline with Tween-80
[10] = dose: 50.0 mg/kg/injection, schedule: Q07DX002 (ip), vehicle: saline with Tween-80
[11] = dose: 800.0 mg/kg/injection, schedule: Q07DX002 (ip), vehicle: saline with Tween-80
[12] = dose: 200.0 mg/kg/injection, schedule: Q07DX002 (ip), vehicle: Klucel (hydroxypropylcellulose) (HPC)

## Cc1ccc2nc(-c3ccc4nc(-c5ccc(N=Nc6ccc(-c7nc8ccc(-c9nc%10ccc(C)c(S(=O)(=O)O)c%10s9)cc8s7)cc6)cc5)sc4c3)sc2c1S(=O)(=O)O
dose: 25.0 mg/kg/injection, schedule: Q07DX002 (ip), vehicle: saline
  T/C: 134 % of control
dose: 800.0 mg/kg/injection, schedule: Q07DX002 (ip), vehicle: saline
  survivor count: 0 of 10 on day 20

## Oc1cccc2ccccc12
dose: 400.0 mg/kg/injection, schedule: Q07DX002 (ip), vehicle: water
  survivor count: 4 of 10 on day 20
dose: 800.0 mg/kg/injection, schedule: Q07DX002 (ip), vehicle: water
  survivor count: 0 of 10 on day 20

## NC(=O)c1ccc[n+](Cc2c(Cl)cccc2Cl)c1
[1]
  survivor count: 4 of 10 on day 20
[2]
  survivor count: 0 of 10 on day 20
[3]
  survivor count: 4 of 10 on day 20

## O=[N+]([O-])c1ccc(N(CCO)CCO)c2c1no[n+]2[O-]
[4]
  survivor count: 5 of 10 on day 20
dose: 200.0 mg/kg/injection, schedule: Q07DX002 (ip), vehicle: saline with Tween-80
  survivor count: 1 of 10 on day 20
[5]
  survivor count: 0 of 10 on day 20

## O=NN(CCCl)C(=O)NC1CCCCC1
dose: 10.0 mg/kg/injection, schedule: Q07DX002 (ip), vehicle: Klucel (hydroxypropylcellulose) (HPC)
  T/C: 40 (2×), 45, 80 [9 of 10 alive on day 20], 85, 88, 93 [9 of 10 alive on day 20], 99, 111, 204 % of control
[6]
  T/C: 27, 37, 40 [9 of 10 alive on day 20], 41 (2×), 83, 102, 117, 155 % of control
  survivor count: 3 of 10 on day 20
[7]
  T/C: 7 [8 of 10 alive on day 20], 12 [8 of 10 alive on day 20], 15, 20, 22 [9 of 10 alive on day 20], 26, 51, 61, 80 % of control [8 of 10 alive on day 20]
  survivor count: 1 of 10 on day 20
[8]
  T/C: 57 and 74 % of control [9 of 10 alive on day 20]
  survivor count: 0 of 10 on day 20, 1 of 10 on day 20, 3 of 10 on day 20, 5 of 10 on day 20
dose: 160.0 mg/kg/injection, schedule: Q07DX002 (ip), vehicle: Klucel (hydroxypropylcellulose) (HPC)
  survivor count: 0 of 10 on day 20, 1 of 10 on day 20, 2 of 10 on day 20, 4 of 10 on day 20

## O=C1N[C@H]2[C@H](O)[C@H](O)[C@@H](O)[C@H](O)[C@@H]2c2cc3c(c(O)c21)OCO3
dose: 7.0 mg/kg/injection, schedule: Q01DX008 (ip), vehicle: saline + alcohol
  survivor count: 0 of 10 on day 20
dose: 14.0 mg/kg/injection, schedule: Q01DX008 (ip), vehicle: saline + alcohol
  survivor count: 0 of 10 on day 20

## CCOC(=O)C(N)C[S][Sn]([CH3])([CH3])[Cl] (centres undefined)
[1]
  survivor count: 0 of 10 on day 20

## Cc1c(N)nc(C(CC(N)=O)NCC(N)C(N)=O)nc1C(=O)NC(C(=O)NC(C)C(O)CC(=O)NC(C(=O)NC(OC1OC(C)C(N)C(O)C1O)C(O)c1nc(-c2nc(C(=O)NCCCC(N)CC(=O)NCCCNCCCCN)cs2)cs1)C(C)O)C(OC1OC(CO)C(O)C(O)C1OC1OC(CO)C(O)C(OC(N)=O)C1O)c1cnc[nH]1 (centres undefined)
dose: 64.0 mg/kg/injection, schedule: Q07DX002 (ip), vehicle: saline
  survivor count: 0 of 10 on day 20

## Oc1cc2ccccc2c(-c2c(O)c(O)cc3ccccc23)c1O
[9]
  survivor count: 0 of 10 on day 20

## CC1(C)OCC2OC=CC(=O)C2O1 (centres undefined)
[10]
  T/C: 147 % of control
[4]
  T/C: 126 % of control
[5]
  T/C: 140 % of control
[11]
  T/C: 147 % of control [9 of 10 alive on day 20]

## COc1ccc(S(=O)(=O)N=N/C=C2\C=CC=CN2O)cc1OC
[5]
  survivor count: 4 of 10 on day 20
dose: 600.0 mg/kg/injection, schedule: Q07DX002 (ip), vehicle: saline with Tween-80
  survivor count: 1 of 10 on day 20

## COc1cc2c[n+](C)c3c(c2cc1OC)Cc1cc2c(cc1-3)OCO2
[11]
  survivor count: 0 of 10 on day 20

## CO[C@@]12[C@H](COC(N)=O)C3=C(C(=O)C(C)=C(N)C3=O)N1C[C@@H]1N[C@@H]12
dose: 4.0 mg/kg/injection, schedule: Q07DX002 (ip), vehicle: saline
  survivor count: 6 of 10 on day 20
dose: 8.0 mg/kg/injection, schedule: Q07DX002 (ip), vehicle: saline
  survivor count: 0 of 10 on day 20 and 1 of 10 on day 20
dose: 16.0 mg/kg/injection, schedule: Q07DX002 (ip), vehicle: saline
  survivor count: 0 of 10 on day 20

## O=C(COc1cccc2c(=O)cc(-c3ccccc3)oc12)OCCN1CCOCC1
[3]
  T/C: 125 % of control [9 of 10 alive on day 20]

## COC(=O)NC1C(C)OC(OC2C/C=C(/C)C3C=CC4C(OC5CC(OC6CCC(OC7CC(O)C(OC8CCC(O)C(C)O8)C(C)O7)C(C)O6)C(OC(C)=O)C(C)O5)C(C)CC(C)C4C3(C)/C(O)=C3/C(=O)OC4(CC(C=O)=CC(O)C4/C=C\2C)C3=O)CC1(C)[N+](=O)[O-] (centres undefined)
dose: 40.0 mg/kg/injection, schedule: Q07DX002 (ip), vehicle: water
  survivor count: 1 of 10 on day 20

## Cc1cc(NCCCN(C)C)c2ccc3c(ccc4c(NCCCN(C)C)cc(C)nc43)c2n1
dose: 12.5 mg/kg/injection, schedule: Q07DX002 (ip), vehicle: saline
  survivor count: 2 of 10 on day 20

## O=C(C/C(=N\C(=S)Nc1cc(C(F)(F)F)ccc1Cl)NO)N1CCCC1
[11]
  survivor count: 0 of 10 on day 20

## O=C(O)Cc1cccc2c(=O)cc(C3CCCCC3)oc12
[2]
  T/C: 135 % of control

## S=C(NCNC(=S)c1ccncc1)c1ccncc1
[9]
  T/C: 128 % of control [9 of 10 alive on day 20]

## Cc1cc(NCCCCCCCCNc2cc(C)nc3cc(N(C)C)ccc23)c2ccc(N(C)C)cc2n1
dose: 50.0 mg/kg/injection, schedule: Q07DX002 (ip), vehicle: distilled water + Tween-80 + alcohol
  survivor count: 6 of 10 on day 20
dose: 100.0 mg/kg/injection, schedule: Q07DX002 (ip), vehicle: distilled water + Tween-80 + alcohol
  survivor count: 0 of 10 on day 20

## CC1c2ccccc2CC(CCN(C)C)c2ccccc21 (centres undefined)
[4]
  survivor count: 6 of 10 on day 20

## Oc1ccc(CCl)c2cccnc12
[3]
  survivor count: 0 of 10 on day 20

## CCOC(=O)c1c[nH]c2oc(/C=N/N3CC(CN4CCOCC4)OC3=O)cc2c1=O (centres undefined)
dose: 1200.0 mg/kg/injection, schedule: Q07DX002 (ip), vehicle: other
  survivor count: 0 of 10 on day 20

## CC(=O)N(C)O
[10]
  T/C: 144 % of control

## CC(=O)OC1C(O)C(C)OC(OC2C(OC(=O)C3CCC4C(C3)OC3(CC(OC(=O)/C=C/c5ccccc5)C(C)CO3)C43CO3)OC(C)C(O)C2OC(C)=O)C1O (centres undefined)
dose: 120.0 mg/kg/injection, schedule: Q07DX002 (ip), vehicle: distilled water + Tween-80
  survivor count: 0 of 10 on day 20

## NC(CCl)=NCC12CC3CC(CC(C3)C1)C2
[12]
  survivor count: 2 of 7 on day 20 and 6 of 10 on day 20

## C=C(Cl)C(=NC(C)(C)C)Nc1ccccc1C
[12]
  survivor count: 1 of 10 on day 20
dose: 400.0 mg/kg/injection, schedule: Q07DX002 (ip), vehicle: Klucel (hydroxypropylcellulose) (HPC)
  survivor count: 2 of 10 on day 20
